Protein sequences, listed by entry. Tags and fused reporters are not part of them. Lines headed by an entry give the natural chain unless they say otherwise; changes in a name come on top.
UniProt Q99538: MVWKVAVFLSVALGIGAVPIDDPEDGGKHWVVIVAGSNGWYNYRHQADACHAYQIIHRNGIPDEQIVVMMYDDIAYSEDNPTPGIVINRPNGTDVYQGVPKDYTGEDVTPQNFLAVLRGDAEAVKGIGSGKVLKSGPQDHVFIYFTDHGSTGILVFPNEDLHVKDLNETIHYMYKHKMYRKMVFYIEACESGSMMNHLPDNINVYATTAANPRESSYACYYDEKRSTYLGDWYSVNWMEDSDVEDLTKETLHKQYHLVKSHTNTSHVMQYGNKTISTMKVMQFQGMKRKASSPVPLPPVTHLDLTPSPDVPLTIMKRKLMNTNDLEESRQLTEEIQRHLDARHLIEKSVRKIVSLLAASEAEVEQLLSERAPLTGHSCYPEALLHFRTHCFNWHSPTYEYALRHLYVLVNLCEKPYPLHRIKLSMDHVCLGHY
UniProt P11142: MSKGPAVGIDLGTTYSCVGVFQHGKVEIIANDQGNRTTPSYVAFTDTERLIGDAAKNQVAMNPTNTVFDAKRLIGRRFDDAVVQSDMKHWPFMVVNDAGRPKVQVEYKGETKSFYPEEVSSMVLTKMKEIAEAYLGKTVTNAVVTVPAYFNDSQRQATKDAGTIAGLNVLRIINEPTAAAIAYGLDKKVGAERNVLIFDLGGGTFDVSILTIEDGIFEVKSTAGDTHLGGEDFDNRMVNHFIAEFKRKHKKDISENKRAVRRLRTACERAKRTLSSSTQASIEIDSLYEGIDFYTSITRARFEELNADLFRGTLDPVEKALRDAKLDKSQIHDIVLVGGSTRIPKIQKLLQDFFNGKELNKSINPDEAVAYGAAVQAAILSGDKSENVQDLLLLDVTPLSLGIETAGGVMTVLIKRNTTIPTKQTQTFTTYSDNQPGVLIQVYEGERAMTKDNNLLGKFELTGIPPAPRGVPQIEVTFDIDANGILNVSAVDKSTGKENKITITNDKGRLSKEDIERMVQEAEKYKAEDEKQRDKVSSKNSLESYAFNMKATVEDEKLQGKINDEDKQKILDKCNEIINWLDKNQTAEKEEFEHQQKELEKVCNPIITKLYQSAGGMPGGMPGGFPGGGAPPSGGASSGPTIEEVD

According to article PMC7801434:

Molecular target: legumain (human (endogenous in HK-2)) (UniProt Q99538)
Test: co-IP; HK-2 cell lysate incubated with an antibody against legumain (or control IgG) at 4 °C overnight, captured on protein G-sepharose, washed with PBS five times; western blotting for legumain, GPX4, Lamp-2a, HSC70 and HSP90; cells untreated, or under normoxic or hypoxic conditions for 24 h (interactions increased by hypoxia)

HSC70 (from UniProt P11142 1-646)
binding: binds

No constants are given. Whether binding was seen depends on the method and setting. In cells and extracts the contact can be indirect. Binding can be weak; no strength is given.
